{
  "source": "patent US10435366B2",
  "about": "“Compositions for the treatment of Fragile X syndrome” (Centre National de la Recherche Scientifique, priority 2011, dated 2019)",
  "key": {"fmr1 ko neurons": {"tested_on": "fmr1 ko neurons", "assay": "In vitro dendrite spine maturation in primary culture of neurons", "format": "cell-based, mouse", "conditions": "chronic addition 10 μM in the media"}, "FMR1 KO mice [1]": {"tested_on": "FMR1 KO mice", "assay": "Y maze test, non-social novelty preference", "format": "in vivo, mouse", "conditions": "single injection 2 mg/kg"}, "FMR1 KO mice [2]": {"tested_on": "FMR1 KO mice", "assay": "Cerebral Magnetic Resonance Spectroscopy (MRS) of hippocampus", "format": "in vivo, mouse"}, "FMR1 KO mice [3]": {"tested_on": "FMR1 KO mice", "assay": "Social preference test (Crawley test, three compartment test)", "format": "in vivo, mouse", "conditions": "single injection 2 mg/kg, vs vehicle, p=0.037"}, "FMR1 KO mice [4]": {"tested_on": "FMR1 KO mice", "assay": "Direct social interaction with a female", "format": "in vivo, mouse", "conditions": "single injection 2 mg/kg"}, "wild type mice [5]": {"tested_on": "wild type mice", "assay": "Social preference test (Crawley test, three compartment test), wild type", "format": "in vivo, mouse", "conditions": "injection 2 mg/kg, treated vs untreated, p=0.22"}, "wild type mice [6]": {"tested_on": "wild type mice", "assay": "Direct social interaction with a female, wild type", "format": "in vivo, mouse", "conditions": "wild type control, injection 2 mg/kg"}},
  "note": "“Also recorded” adds a separate entry of the source. At least one compound was matched to its structure with a doubt left.",
  "data": [
    {"smiles": "COc1ccc(Cl)cc1[C@]1(F)C(=O)Nc2cc(C(F)(F)F)ccc21", "note": "[BMS-204352, (3S)-(+)-(5-Chloro-2-methoxyphenyl)-1,3-dihydro-3-fluoro-6-(trifluoromethyl)-2H-indol-2-one]", "values": [
      {"measurement": "maturation of dendrite spines", "setting": "fmr1 ko neurons", "result": "rescued; also recorded: induce the maturation"},
      {"measurement": "preference for novelty (time spent in the novel environment), Y maze", "setting": "FMR1 KO mice [1]; p=0.04, 2 mg/kg", "result": "significantly increased"},
      {"measurement": "preference for novelty (time spent in the novel environment), Y maze", "setting": "FMR1 KO mice [1]; p=0.04, listed as BMS-204 352, 2 mg/kg", "result": "significantly enhances"},
      {"measurement": "glutamate level in hippocampus (MRS)", "setting": "FMR1 KO mice [2]; adult fmr1 ko mice, single dose as for the behavioral study", "result": "returns to the control level"},
      {"measurement": "other cerebral metabolites / cerebral function (MRS)", "setting": "FMR1 KO mice [2]; fmr1 ko mice", "result": "rescue to “normal” cerebral activity; also recorded: rescues the synaptic defects"},
      {"measurement": "social interest (interest in the new mouse), Crawley test", "setting": "FMR1 KO mice [3]", "result": "significantly improved; also recorded: significantly increased"},
      {"measurement": "direct social interaction with a female", "setting": "FMR1 KO mice [4]; p=0.04, 2 mg/kg", "result": "significantly increased"},
      {"measurement": "direct social interaction with a female", "setting": "FMR1 KO mice [4]; p=0.04, listed as BMS 204 352, 2 mg/kg", "result": "significantly improves"},
      {"measurement": "social activity, Crawley test", "setting": "wild type mice [5]", "result": "no significant difference; also recorded: did not significantly alter"},
      {"measurement": "direct social interaction with a female", "setting": "wild type mice [6]", "result": "did not have a significant effect"}
    ]}
  ]
}
